Experimental data reported in publication PMC4601075, “Specific binding of eukaryotic ORC to DNA replication origins depends on highly conserved basic residues” (Scientific Reports, 2015).

Test system: ORC hexamer wild-type (Orc1-TEV-His/Orc2/3/4/5/6) (Saccharomyces cerevisiae)
Assay: EMSA
Conditions: 1 mM ATP, GC-rich competitor DNA, 25 mM HEPES-KOH pH 7.6, 100 mM K glutamate, 5 mM Mg acetate, 5 mM CaCl2, 5 mM DTT, 5% glycerol, 0.1% Triton X-100, 2 mg/ml BSA, 1.6 nM dsDNA or 3 nM ssDNA, recombinant protein, protein details: TEV-His on Orc1 (C-terminal by name), label: Cy5-ddUTP (terminal transferase), probe letters rebuilt from the primers and the genome

“CCCACATGTCAATTTAGTATATTACTGTATATCTAGTTCATTCTTCAAAATAAAGAATGCATAACCATTTTTTTATGTTTTTTCCGGAATTGGCTAAATTCACAAAAAAAAAGAGCATAAAGCGAATTGAATTGTCTCGCCAAGAAAACGCACTGAGAGGACGATTGATCCTCCAGACAAGATCGGAATTTTTACTTTTCTGTTTTTAACGACGTCGG (double strand) [ARS609 fragment]”: binds.

“CCGACGTCAGATCTTAATTTATCTCATGAAGTAATGATACCTCAGCGATGTGCTCGCTCGTTAGTATGCTTCATAAATTCATTATTATTTTTTTTTGGAAGTGTTTTTCGACAAAAGTTGCATTTTTACGAAGGATATGTAAACTCAAGAAGTACTAAATAAATATAAATACAATTCGAAAATTTGAAAAAAGTAGGAGACAACACTTTCCTTCCTCACGAAGAAGTTAAGCTTACATGTGGG (double strand) [ARS306 fragment]”: binds.

The exact form of at least one protein or probe is not confirmed. At least one verdict was read from the data and is not stated in words by the source.
